In article doi:10.1101/2024.10.03.616587:
These are yes or no findings as the source states them, for the method shown. Binding seen in cells or lysates may run through a third protein. Some entries that bind do so weakly or less than the wild type. Tags and fused reporters may be left off the sequences shown.

Sequences of proteins named here, by UniProt entry; tags and fusion partners are left off. Residues count along the entry.
UniProt P22460: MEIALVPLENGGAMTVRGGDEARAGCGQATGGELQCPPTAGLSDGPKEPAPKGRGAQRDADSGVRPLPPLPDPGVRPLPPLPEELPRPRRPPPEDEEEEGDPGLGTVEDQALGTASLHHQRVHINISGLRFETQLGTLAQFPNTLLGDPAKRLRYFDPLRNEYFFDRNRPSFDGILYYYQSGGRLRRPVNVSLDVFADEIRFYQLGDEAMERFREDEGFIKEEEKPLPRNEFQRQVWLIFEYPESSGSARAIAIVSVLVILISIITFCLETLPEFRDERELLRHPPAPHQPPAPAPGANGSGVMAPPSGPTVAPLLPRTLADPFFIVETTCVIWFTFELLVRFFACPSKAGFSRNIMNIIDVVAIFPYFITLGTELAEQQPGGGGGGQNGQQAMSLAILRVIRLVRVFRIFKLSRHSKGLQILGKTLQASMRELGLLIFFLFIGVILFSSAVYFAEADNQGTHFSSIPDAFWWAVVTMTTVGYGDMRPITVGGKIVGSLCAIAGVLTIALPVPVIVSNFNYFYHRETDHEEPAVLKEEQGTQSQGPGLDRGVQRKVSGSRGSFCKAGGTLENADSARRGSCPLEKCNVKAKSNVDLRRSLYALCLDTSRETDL
UniProt Q8N135, residues 20-537: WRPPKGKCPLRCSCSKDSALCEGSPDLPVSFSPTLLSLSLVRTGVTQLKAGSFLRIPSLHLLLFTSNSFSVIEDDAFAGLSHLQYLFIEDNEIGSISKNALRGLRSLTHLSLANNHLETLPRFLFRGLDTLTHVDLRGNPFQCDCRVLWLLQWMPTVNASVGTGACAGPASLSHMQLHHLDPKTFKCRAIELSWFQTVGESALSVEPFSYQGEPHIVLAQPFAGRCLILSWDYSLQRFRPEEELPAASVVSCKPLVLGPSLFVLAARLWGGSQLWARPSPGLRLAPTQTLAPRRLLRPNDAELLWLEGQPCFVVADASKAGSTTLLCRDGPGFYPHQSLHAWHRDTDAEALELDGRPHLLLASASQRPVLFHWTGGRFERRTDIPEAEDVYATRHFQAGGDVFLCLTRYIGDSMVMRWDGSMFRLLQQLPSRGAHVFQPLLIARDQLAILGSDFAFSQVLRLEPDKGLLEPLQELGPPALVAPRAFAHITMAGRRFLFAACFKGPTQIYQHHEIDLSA

Target: KV1.5 channel (UniProt P22460)
Test: co-IP

Row | Molecule | binding
1 | Lgi4, FLAG-tagged (from UniProt Q8N135-1 20-537) | binds
2 | Lgi3, FLAG-tagged (protein, UniProt Q8N145 31-548) KRPPKTPPCPPSCSCTRDTAFCVDSKAVPRNLPSEVISLTLVNAAFSEIQDGAFSHLPLLQFLLLNSNKFTLIGDNAFTGLSHLQYLFIENNDIWALSKFTFRGLKSLTHLSLANNNLQTLPRDIFRPLDILNDLDLRGNSLNCDCKVKWLVEWLAHTNTTVAPIYCASPPRFQEHKVQDLPLREFDCITTDFVLYQTLAFPAVSAEPFLYSSDLYLALAQPGVSACTILKWDYVERQLRDYDRIPAPSAVHCKPMVVDSQLYVVVAQLFGGSYIYHWDPNTTRFTRLQDIDPQRVRKPNDLEAFRIDGDWYFAVADSSKAGATSLYRWHQNGFYSHQALHPWHRDTDLEFVDGEGKPRLIVSSSSQAPVIYQWSRTQKQFVAQGEVTQVPDAQAVKHFRAGRDSYLCLSRYIGDSKILRWEGTRFSEVQALPSRGSLALQPFLVGGRRYLALGSDFSFTQIYQWDEGRQKFVRFQELAVQAPRAFCYMPAGDAQLLLAPSFKGQTLVYRHIVVDLSA | binds
